The source of these data is publication PMC6050966, “Structure-Function Analysis of the Curli Accessory Protein CsgE Defines Surfaces Essential for Coordinating Amyloid Fiber Formation” (mBio, 2018).

For assay [1], the target named is T1, WT CsgE (6x-His-tagged, E. coli MC4100) (E. coli MC4100), P0AE95.
T1 chain: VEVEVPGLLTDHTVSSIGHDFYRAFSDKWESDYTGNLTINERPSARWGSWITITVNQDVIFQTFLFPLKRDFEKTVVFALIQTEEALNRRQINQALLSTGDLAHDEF
Kind of assay: native gel or EMSA; native PAGE of purified CsgE (monomer peak) incubated at 37°C for various times; both purified. The following applies: remark: other sources report otherwise. Background: In EMSA bound probe runs differently from free probe, usually more slowly.

The target in assay [2] is T1, WT CsgE (6x-His-tagged, E. coli MC4100) …. The assay can be described thus: SEC-MALS; Superdex 200 Increase 10/300 GL, 0.3 ml/min; protein at 2 mg/ml in 50 mM KHPO4 pH 7.3 with and without 150 mM NaCl; both purified. As to conditions: remark: other sources report otherwise. (SEC sorts molecules by how far they enter the pores of the column.)

These are yes or no findings as the source states them, for the method shown. Some results given as binding are weak or reduced against the parent protein; the word gives no strength. Where a sequence is shown, tags or fusion partners need not be part of it.

B1: WT CsgE (6x-His-tagged, E. coli MC4100), P0AE95 23-129 (natural protein)
chain: VEVEVPGLLTDHTVSSIGHDFYRAFSDKWESDYTGNLTINERPSARWGSWITITVNQDVIFQTFLFPLKRDFEKTVVFALIQTEEALNRRQINQALLSTGDLAHDEF
In the case of B1, the binding result in assay [1] and in assay [2] was “binds” each time.
